According to patent publication US20100042137A1, “ACUPUNCTURE AND ACUPRESSURE THERAPIES” (priority 2008, published 2010):

Tests used:
human patients = assay: Treatment with epinephrine or Restylane at specific influential points, also in combination with magnets; pain level x/10; type: in vivo; settings: same patient
Patients with Arthritis = assay: Treatment of patients with arthritis by injection at or near acupuncture points; pain level x/10; type: in vivo, human; settings: same patient as E5
Description: Treatment of Patients with Arthritis
(i) A patient presented with a 5/10 pain from severe rheumatoid arthritis.
(ii) A patient presented with an 8/10 pain from severe rheumatoid arthritis.
(iii) A patient presented with 8/10 pain from severe rheumatoid arthritis with diffuse joint stiffness, swelling and tenderness.
(i) A patient presented with a pain level of 10/10 from cervical strain due to seronegative rheumatoid arthritis.
(ii) A patient presented with a 7.5/10 pain globally from a seronegative arthritis (unspecified).
A patient presented with a 5/10 pain from bilateral post-traumatic subtalar arthritis.

CCN(CC)CC(=O)Nc1c(C)cccc1C [lidocaine]
remained pain-free at time later (human patients): ≥ 1 week | time remained pain free (Patients with Arthritis): 2 weeks
